Results from publication PMC12711579.
No constants are given. Whether binding was seen depends on the method and setting. For some assays here: Binding can be weak; no strength is given.

Tests used:
Test in all cases: two-hybrid; Clontech Matchmaker Gold; pGADT7 (AD) and pGBKT7 (BD) fusions co-transformed into Y2H Gold yeast; serial dilutions on DDO, TDO (−His/−Leu/−Trp, screens for weak interactions) and QDO (−His/−Ade/−Leu/−Trp, screens for strong interactions); 3–5 days at 30 °C
ASY1 (A. thaliana) = biological target: T1, ASY1 (A. thaliana) (UniProt F4HRV8)
T1 sequence: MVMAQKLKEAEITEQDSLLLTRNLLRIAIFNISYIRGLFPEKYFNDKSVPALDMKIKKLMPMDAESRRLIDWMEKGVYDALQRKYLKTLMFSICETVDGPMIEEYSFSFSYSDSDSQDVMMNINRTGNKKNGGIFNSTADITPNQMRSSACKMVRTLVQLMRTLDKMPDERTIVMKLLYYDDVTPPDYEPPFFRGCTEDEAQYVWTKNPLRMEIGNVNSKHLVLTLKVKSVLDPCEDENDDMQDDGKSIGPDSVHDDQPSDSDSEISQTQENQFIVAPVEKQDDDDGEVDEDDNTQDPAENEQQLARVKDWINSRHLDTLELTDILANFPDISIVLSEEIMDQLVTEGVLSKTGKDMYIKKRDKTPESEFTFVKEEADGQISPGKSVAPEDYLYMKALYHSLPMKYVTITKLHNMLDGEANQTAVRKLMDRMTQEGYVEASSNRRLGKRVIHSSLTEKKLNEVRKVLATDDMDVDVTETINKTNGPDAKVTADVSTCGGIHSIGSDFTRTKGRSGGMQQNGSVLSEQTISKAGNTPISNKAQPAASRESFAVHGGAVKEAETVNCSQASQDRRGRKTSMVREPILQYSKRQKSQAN

ASY3 (A. thaliana) = biological target: T2, ASY3 (A. thaliana) (UniProt Q0WR66)
T2 sequence: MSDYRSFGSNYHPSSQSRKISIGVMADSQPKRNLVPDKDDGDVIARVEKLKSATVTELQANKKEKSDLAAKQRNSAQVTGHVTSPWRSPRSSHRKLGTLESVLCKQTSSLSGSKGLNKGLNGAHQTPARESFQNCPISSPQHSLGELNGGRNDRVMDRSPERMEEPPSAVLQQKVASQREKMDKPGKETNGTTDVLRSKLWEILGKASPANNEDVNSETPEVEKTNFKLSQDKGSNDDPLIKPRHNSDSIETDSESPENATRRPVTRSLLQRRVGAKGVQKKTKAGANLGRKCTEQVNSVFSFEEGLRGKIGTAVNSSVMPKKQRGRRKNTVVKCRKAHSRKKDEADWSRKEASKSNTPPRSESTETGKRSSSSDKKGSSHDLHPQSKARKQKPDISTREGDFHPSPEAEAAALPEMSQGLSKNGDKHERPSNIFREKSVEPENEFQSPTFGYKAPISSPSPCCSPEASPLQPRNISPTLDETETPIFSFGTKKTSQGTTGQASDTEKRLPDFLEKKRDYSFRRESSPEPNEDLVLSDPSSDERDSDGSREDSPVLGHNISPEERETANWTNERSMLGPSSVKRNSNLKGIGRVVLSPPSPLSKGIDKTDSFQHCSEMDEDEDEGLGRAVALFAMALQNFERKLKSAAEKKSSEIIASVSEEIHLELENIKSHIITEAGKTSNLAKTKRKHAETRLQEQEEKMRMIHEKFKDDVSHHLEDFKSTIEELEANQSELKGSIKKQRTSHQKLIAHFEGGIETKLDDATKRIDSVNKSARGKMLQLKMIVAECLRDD

HEI10 (A. thaliana) = biological target: T3, HEI10 (A. thaliana) (UniProt F4HRI2)
T3 sequence: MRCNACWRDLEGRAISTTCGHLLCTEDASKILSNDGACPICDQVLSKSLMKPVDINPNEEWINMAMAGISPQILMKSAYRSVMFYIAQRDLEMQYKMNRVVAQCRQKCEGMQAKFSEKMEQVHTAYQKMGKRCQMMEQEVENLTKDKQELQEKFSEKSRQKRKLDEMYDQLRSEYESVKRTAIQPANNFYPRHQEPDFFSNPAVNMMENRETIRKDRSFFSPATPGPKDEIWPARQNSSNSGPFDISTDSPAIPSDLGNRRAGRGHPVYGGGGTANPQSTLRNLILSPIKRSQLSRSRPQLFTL

MLH1 (A. thaliana) = biological target: T4, MLH1 (A. thaliana) (UniProt Q9ZRV4)
T4 sequence: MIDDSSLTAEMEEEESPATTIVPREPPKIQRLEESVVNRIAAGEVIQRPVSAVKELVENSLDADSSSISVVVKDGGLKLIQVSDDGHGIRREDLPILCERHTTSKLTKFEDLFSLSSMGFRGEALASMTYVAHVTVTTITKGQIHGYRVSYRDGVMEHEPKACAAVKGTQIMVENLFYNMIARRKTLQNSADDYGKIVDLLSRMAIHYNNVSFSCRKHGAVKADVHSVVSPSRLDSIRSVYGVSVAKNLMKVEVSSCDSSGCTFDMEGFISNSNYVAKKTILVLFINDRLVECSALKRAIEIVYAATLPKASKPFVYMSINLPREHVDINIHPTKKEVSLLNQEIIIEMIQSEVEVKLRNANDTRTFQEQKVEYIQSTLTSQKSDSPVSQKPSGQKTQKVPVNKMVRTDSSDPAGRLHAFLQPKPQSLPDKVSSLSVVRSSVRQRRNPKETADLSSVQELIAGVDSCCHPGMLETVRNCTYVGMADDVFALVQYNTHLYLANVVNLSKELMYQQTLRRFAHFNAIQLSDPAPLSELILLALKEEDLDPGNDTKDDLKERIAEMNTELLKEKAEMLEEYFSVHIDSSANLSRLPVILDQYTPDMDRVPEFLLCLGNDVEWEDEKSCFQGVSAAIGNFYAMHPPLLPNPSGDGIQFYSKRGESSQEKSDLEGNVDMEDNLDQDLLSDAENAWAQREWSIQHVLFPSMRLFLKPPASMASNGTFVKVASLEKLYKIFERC

PCH2 (A. thaliana) = biological target: T5, PCH2 (A. thaliana) (UniProt Q8H1F9)
T5 sequence: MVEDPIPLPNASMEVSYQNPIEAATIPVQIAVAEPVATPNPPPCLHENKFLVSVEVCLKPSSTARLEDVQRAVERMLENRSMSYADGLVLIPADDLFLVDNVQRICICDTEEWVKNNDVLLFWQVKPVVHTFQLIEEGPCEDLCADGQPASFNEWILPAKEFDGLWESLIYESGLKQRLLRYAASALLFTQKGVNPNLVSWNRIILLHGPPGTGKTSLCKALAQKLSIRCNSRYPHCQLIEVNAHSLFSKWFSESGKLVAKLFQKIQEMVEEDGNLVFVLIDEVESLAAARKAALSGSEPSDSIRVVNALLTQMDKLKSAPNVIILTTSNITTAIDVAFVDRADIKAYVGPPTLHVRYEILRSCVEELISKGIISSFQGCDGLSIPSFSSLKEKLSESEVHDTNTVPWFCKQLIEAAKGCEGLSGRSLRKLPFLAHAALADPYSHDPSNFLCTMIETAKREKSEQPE

- binding (ASY1 (A. thaliana)): no binding
- binding (ASY3 (A. thaliana)): no binding
- binding (HEI10 (A. thaliana)): no binding
- binding (MLH1 (A. thaliana)): no binding
- binding (PCH2 (A. thaliana)): binds
Substance: SCEP3, full-length (AD–SCEP3) (from UniProt A0A1P8B5T3)
